Screening data

From PubChem BioAssay record AID1224904 (Broad Institute, 2016).

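Selective DUX4 reporter inhibition in doxycycline-induced 293T-iDUX4 cells, scored as Gaussia percent activity minus Italica percent activity, after a 24-hour treatment.
The test concentration is not given here.
Percent difference between the Gaussia and Italica channels; more negative values mean more selective suppression of the DUX4 reporter, and higher values mean less activity.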

Values are in %.
How 0% and 100% were set is not given here.
Common to all entries: measured here: selective DUX4 reporter inhibition.
This is a side read-out of the assay, for part of the compounds, not drawn at random.

SMILES | Gaussia minus Italica difference (%)
Cc1cccc(S(=O)(=O)N2CC[C@@H]3[C@H]2c2cc(C#Cc4cccnc4)ccc2N[C@@H]3CO)c1 | -2.584
CC(C)C#Cc1ccc([C@@H]2[C@H](CO)N3CCCCN(C(=O)c4ccc(F)cc4)C[C@@H]23)cc1 | -0.1552
O=C(C[C@H]1CC[C@@H]2[C@H](COC[C@@H](O)CN2Cc2cccc(Cl)c2)O1)NCC1CCCCC1 | -0.3011
O=C(Cc1ccccn1)N[C@@H]1CC[C@@H](CCn2cc(-c3ccc(F)cc3)nn2)O[C@H]1CO | -24.72
OC[C@H]1[C@@H](c2ccc(-c3ccc(F)cc3)cc2)[C@H]2CN(Cc3cccnc3)CCCCN21 | -4.572
COc1ccc(S(=O)(=O)N2CC[C@@H]3[C@@H](CO)Nc4ccc(-c5cccc(C#N)c5)cc4[C@@H]32)cc1 | -5.601
Cc1ccc(-c2ccc([C@H]3[C@@H](CO)N4CCCCN(Cc5ccccn5)C[C@H]34)cc2)cc1 | -13.19
COc1ccc2c3c([nH]c2c1)[C@H](CO)N(Cc1cc(F)ccc1F)CC31CCN(C(C)=O)CC1 | -7.526
COc1cccc(CN2CCC3(CC2)CN(C(=O)C2CC2)[C@@H](CO)c2[nH]c4cc(OC)ccc4c23)c1 | 18.93
O=C(C[C@H]1CC[C@H]2[C@@H](COC[C@@H](O)CN2C(=O)c2cc(Cl)cc(Cl)c2)O1)N1CCc2ccccc2C1 | -18.04
C[C@@H](NC(=O)C[C@@H]1CC[C@@H]2[C@H](COC[C@H](O)CN2Cc2cc(F)ccc2F)O1)c1ccccc1 | -20.8
O=C(C[C@H]1CC[C@H]2[C@@H](COC[C@H](O)CN2Cc2cccc(Cl)c2)O1)NCC1CCCCC1 | -8.73
CS(=O)(=O)N1CC(=O)N2[C@H](C1)[C@H](c1ccc(C#CCc3ccccc3)cc1)[C@@H]2CO | -15.83
COc1ccc2c3c([nH]c2c1)[C@@H](CO)N(C(=O)c1cccc(F)c1)CC31CN(C(=O)c2ccccc2)C1 | -16.06
COc1ccc2c3c(n(C)c2c1)[C@@H](CO)N(C(=O)c1ccccc1)CC31CN(Cc2ccccc2OC)C1 | -1.27
C[C@@H]1CN([C@H](C)CO)C(=O)c2c(c3ccccc3n2C)-c2ccccc2CO[C@@H]1CN(C)C(=O)[C@H](C)c1ccccc1 | -14.28
C[C@H](CO)N1C[C@H](C)[C@H](CN(C)C(=O)[C@H](C)c2ccccc2)OCc2ccccc2-c2c(n(C)c3ccccc23)C1=O | 5.173
CCCC(=O)Nc1ccc2c(c1)C(=O)N(C)C[C@@H](OC)[C@H](C)CN(Cc1ccc(F)cc1)[C@H](C)CO2 | -9.287
COc1cccc(-c2ccc3c(c2)[C@H]2[C@H](CCN2S(=O)(=O)c2cccc(OC)c2)[C@@H](CO)N3)c1 | 10.91
O=C(C[C@H]1C=C[C@H](NC(=O)c2ccc3c(c2)OCO3)[C@H](CO)O1)NC1Cc2ccccc2C1 | -8.584
COc1ccc(-c2ccc3c(c2)[C@@H]2[C@@H](CCN2C(=O)c2ccc(F)cc2)[C@H](CO)N3C)cc1 | 27.79
Cc1ccccc1S(=O)(=O)N1CC[C@@H]2[C@H](CO)Nc3ccc(-c4ccccc4)cc3[C@@H]21 | -4.877
C(=C\c1ccc(C2[C@@H]3CN(Cc4cocn4)C[C@H]2N3)cc1)/c1ccccc1 (some centres unmarked) | 1.488
COc1ccc(S(=O)(=O)N2C[C@H](O)COC[C@@H]3O[C@H](CC(=O)NCc4ccc(Cl)c(Cl)c4)CC[C@H]32)cc1 | -4.119
O=C(C1CCCCC1)N1CC2(C1)[C@H](c1ccccc1)[C@H](CO)N2Cc1ccccc1F | -9.209
C/C=C/c1ccc([C@H]2[C@@H](CO)N3C(=O)CN(S(=O)(=O)c4ccccc4)C[C@@H]23)cc1 | -0.2193
COc1ccc2c3c([nH]c2c1)[C@@H](CO)N(S(C)(=O)=O)CC31CCN(Cc2cccc(F)c2)CC1 | 13.42
C[C@H]1CN([C@@H](C)CO)C(=O)c2ccccc2-c2ccccc2CO[C@H]1CN(C)C(=O)c1cc(Cl)cc(Cl)c1 | 8.761
O=C(C[C@@H]1CC[C@@H]2[C@H](COC[C@H](O)CN2Cc2cc(F)ccc2F)O1)N[C@@H]1CCN(Cc2ccccc2)C1 | -14.95
CC(C)OC(=O)N(C)C[C@@H]1OCc2ccccc2-c2c(n(C)c3ccccc23)C(=O)N([C@H](C)CO)C[C@@H]1C | 0.5516
CO[C@@H]1CN(C)C(=O)c2ccc(NC(=O)c3cccc(Oc4ccccc4)c3)cc2OC[C@H](C)NC[C@@H]1C | 21.18
O=C(C[C@H]1C[C@H]2c3cc(NS(=O)(=O)c4ccc(F)cc4)ccc3O[C@H]2[C@H](CO)O1)NCCc1ccccc1 | 0.9557
CCC(=O)N1CCCCN2[C@H](C1)[C@@H](c1ccc(/C=C/c3ccccc3)cc1)[C@@H]2CO | -11.52
CN(C)CC(=O)Nc1ccc2c(c1)[C@@H]1C[C@@H](CC(=O)NCc3ccc(-c4ccccc4)cc3)O[C@@H](CO)[C@@H]1O2 | -12.09
O=C(C[C@H]1CC[C@@H]2[C@H](COC[C@H](O)CN2Cc2cccc(-c3ccncc3)c2)O1)N1CCN(c2ccccc2)CC1 | -3.541
O=C(C[C@H]1CC[C@H]2[C@@H](COC[C@@H](O)CN2Cc2ccc(C(F)(F)F)cc2)O1)NCCc1ccccc1 | -4.849
CO[C@H]1CN(C)C(=O)c2ccc(NC(=O)Nc3ccc(C(F)(F)F)cc3)cc2OC[C@@H](C)NC[C@@H]1C | -6.373
Cc1cccc(-c2ccc([C@@H]3[C@H](CO)N4CCCCN(CCC(F)(F)F)C[C@@H]34)cc2)c1 | -22.29
C[C@H]1CN([C@@H](C)CO)C(=O)CCCn2nncc2CO[C@H]1CN(C)S(=O)(=O)c1ccc(-c2ccccc2)cc1 | 0.5999
N#C[C@H]1[C@@H](c2ccccc2C2=CCCCC2)[C@@H](CO)N1C(=O)Nc1ccccc1F | 7.518
COC(=O)[C@@H]1[C@@H](CO)[C@@H]2Cn3c(ccc(C4=CCCCC4)c3=O)[C@H]1N2CC1CCCCC1 | -13.75
CN(C)CC(=O)N1C[C@@H]2N[C@H](C1)C2c1ccc(-c2ccccc2F)cc1 (some centres unmarked) | -3.428

For reference, 4 entries once more:

SMILES,Gaussia minus Italica difference (%)
C[C@H](CO)N1C[C@H](C)[C@H](CN(C)C(=O)[C@H](C)c2ccccc2)OCc2ccccc2-c2c(n(C)c3ccccc23)C1=O,5.173
O=C(C[C@H]1C=C[C@H](NC(=O)c2ccc3c(c2)OCO3)[C@H](CO)O1)NC1Cc2ccccc2C1,-8.584
COC(=O)[C@@H]1[C@@H](CO)[C@@H]2Cn3c(ccc(C4=CCCCC4)c3=O)[C@H]1N2CC1CCCCC1,-13.75
O=C(C[C@H]1C[C@H]2c3cc(NS(=O)(=O)c4ccc(F)cc4)ccc3O[C@H]2[C@H](CO)O1)NCCc1ccccc1,0.9557